Here are results for three molecules from PMC7732823.

By UniProt entry, the sequences of proteins in these tests, tags left out. Where a name states a change or a piece, a line headed by the entry shows the natural chain unless it says otherwise. Residues count along the entry.
UniProt P25490: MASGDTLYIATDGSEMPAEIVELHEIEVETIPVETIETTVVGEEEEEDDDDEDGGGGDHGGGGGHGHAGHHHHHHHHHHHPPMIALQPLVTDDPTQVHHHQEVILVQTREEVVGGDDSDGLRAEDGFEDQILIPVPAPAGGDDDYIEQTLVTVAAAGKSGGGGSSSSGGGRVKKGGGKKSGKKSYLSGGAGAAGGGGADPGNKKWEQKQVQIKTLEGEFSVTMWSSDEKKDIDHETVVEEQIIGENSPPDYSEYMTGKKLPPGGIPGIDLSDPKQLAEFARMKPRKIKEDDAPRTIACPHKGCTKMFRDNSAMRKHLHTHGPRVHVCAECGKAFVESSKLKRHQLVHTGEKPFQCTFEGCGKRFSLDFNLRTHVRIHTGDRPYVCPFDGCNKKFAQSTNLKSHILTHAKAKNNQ
UniProt Q8VIM5: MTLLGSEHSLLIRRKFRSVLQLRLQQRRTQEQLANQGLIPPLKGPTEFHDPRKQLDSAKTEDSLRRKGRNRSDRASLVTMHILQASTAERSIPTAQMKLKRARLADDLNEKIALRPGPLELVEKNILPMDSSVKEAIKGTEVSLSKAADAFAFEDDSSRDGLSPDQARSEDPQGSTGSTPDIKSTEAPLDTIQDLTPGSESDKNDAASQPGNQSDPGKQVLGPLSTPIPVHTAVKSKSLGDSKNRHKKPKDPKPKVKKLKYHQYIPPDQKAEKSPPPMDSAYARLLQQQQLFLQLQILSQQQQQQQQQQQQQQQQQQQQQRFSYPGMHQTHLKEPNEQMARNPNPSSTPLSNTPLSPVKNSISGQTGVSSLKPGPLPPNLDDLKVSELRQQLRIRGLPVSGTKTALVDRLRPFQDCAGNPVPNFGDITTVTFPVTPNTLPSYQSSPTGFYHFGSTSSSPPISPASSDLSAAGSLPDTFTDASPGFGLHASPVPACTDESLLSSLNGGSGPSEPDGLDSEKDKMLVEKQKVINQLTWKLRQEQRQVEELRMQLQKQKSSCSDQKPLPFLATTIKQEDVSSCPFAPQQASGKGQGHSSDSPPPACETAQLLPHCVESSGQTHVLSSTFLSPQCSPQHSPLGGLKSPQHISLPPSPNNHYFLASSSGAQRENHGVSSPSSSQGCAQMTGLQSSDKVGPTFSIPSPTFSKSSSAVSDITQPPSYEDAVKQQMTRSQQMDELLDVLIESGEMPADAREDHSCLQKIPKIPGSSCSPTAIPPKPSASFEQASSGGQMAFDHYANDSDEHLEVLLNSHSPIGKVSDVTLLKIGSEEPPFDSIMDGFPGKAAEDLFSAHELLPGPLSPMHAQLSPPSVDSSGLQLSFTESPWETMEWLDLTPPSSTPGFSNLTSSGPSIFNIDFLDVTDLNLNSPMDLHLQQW
MYOCD(1–350)-GST: residues 1-350 of Q8VIM5
MYOCD-truncation GST fusion protein (1–220): residues 1-220 of Q8VIM5
MYOCD-truncation GST fusion protein (221–350): residues 221-350 of Q8VIM5

Like-named read-outs stand apart in the source and are kept apart here. No constants are given. Whether binding was seen depends on the method and setting. In cells and extracts the contact can be indirect. Some results given as binding are weak or reduced against the parent protein; the word gives no strength.

One assay has as its target GST-YY1 (UniProt P25490). Put plainly: pull-down; GST fusion protein or GST on glutathione-agarose beads incubated for 2 h with bacterially expressed T7 fusion protein in PBS with 1% Triton X-100, 1 mg/ml BSA and protease inhibitors; washed 3 times; Western blot with anti-T7. (A western blot detects proteins with antibodies after separation by electrophoresis.)
In assay [1] the target is MYOCD(1–350)-GST (UniProt Q8VIM5). Put plainly: pull-down; competitive GST pull-down: MYOCD(1-350)-GST on glutathione-agarose beads with T7-YY1 and increasing amounts of T7-SRF(1-222); PBS with 1% Triton X-100, 1 mg/ml BSA; Western blot with YY1 or SRF antibodies.
The target of assay [2] is MYOCD-truncation GST fusion protein (221–350) (UniProt Q8VIM5). Kind of assay: pull-down; GST fusion protein or GST on glutathione-agarose beads incubated for 2 h with bacterially expressed T7 fusion protein in PBS with 1% Triton X-100, 1 mg/ml BSA and protease inhibitors; washed 3 times; Western blot with anti-T7.
For assay [3], the target named is MYOCD-truncation GST fusion protein (1–220) (UniProt Q8VIM5). The description is as above.
Assay [4] addresses MYOCD(1–350)-GST (UniProt Q8VIM5). Kind of assay: pull-down; competitive GST pull-down: MYOCD(1-350)-GST on glutathione-agarose beads with T7-YY1 and increasing amounts of T7-SRF(1-222); PBS with 1% Triton X-100, 1 mg/ml BSA; Western blot with YY1 or SRF antibodies. This is another data set of the same source.

For “T7 tagged full-length MYOCD (from UniProt Q8VIM5 1-935)”, in the assay with GST-YY1, the binding entry is listed as “binds”.
As to “T7-tagged YY1 (from UniProt P25490 1-414)”, the binding result (with MYOCD(1–350)-GST [1]; in assay [2]; in assay [3]) was “binds” each time.

B1: T7-SRF(1-222aa) (domain or fragment, UniProt P11831 1-222)
chain: MLPTQAGAAAALGRGSALGGSLNRTPTGRPGGGGGTRGANGGRVPGNGAGLGPGRLEREAAAAAATTPAPTAGALYSGSEGDSESGEEEELGAERRGLKRSLSEMEIGMVVGGPEASAAATGGYGPVSGAVSGAKPGKKTRGRVKIKMEFIDNKLRRYTTFSKRKTGIMKKAYELSTLTGTQVLLLVASETGHVYTFATRKLQPMITSETGKALIQTCLNSP
On to B1, for which the binding entry with MYOCD(1–350)-GST [4] is reported as “binds”.
